Laboratory results reported in patent US7786259 (dated 2010).

Legend:
[1] = general procedure: peptide synthesis; MBHA-Z-Glu-OtBu resin (4-methyl-benzhydryl amine polystyrene); Pam resin; hydroxymethyl polystyrene; HATU/TMP; details: whole synthesis; for crude HPLC purity: 260 nm
[2] = general procedure: peptide synthesis; Dde resin; HATU/TMP; details: whole synthesis, HPLC of the crude product at 260 nm, C18 column

Tyr-Ala-Orn-NHCH(CH3)COCF3•H2O
crude HPLC purity [1]: 74%

Tyr-Ala-Phe-NHCH(CH3)COCF3•H2O
crude HPLC purity [1]: 74%

Tyr-Ala-Val-NHCH(CH3)COCF3•H2O
crude HPLC purity [2]: 85% | crude yield ([1]; amount of peptide obtained after cleavage): >80%
